The inconclusive results got no clear call from the source; some entries with a clear call stand among them for comparison. Potencies beside an inconclusive call are fits to weak or partial responses and may not hold up. Active and inactive are the calls of the source. Calls come from the whole dose curve; as a rule, active = well fitted curve in the direction sought with a large enough effect; inconclusive = small, poorly fitted or top-dose-only effect, or another doubt; inactive = no such curve, though single readings can be large; an effect the other way counts as inactive or inconclusive.
How the values were obtained:
[1] = Quantitative High-Throughput drug screen in 47 multiple myeloma cell lines against the NCATS MIPE library collection: KMS20_JCRB cell viability assay (AID 1918973); conditions: CellTiter-Glo ATP, 48 h; viability (% of DMSO): at 45.8 µM (top of the series); note: nearly all actives have a fitted effect of over 45% in size
Summary of the method: (§1)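 Steps: seed 500 cells per well; pin-transfer MIPE 4.0 library; incubate 48 h at 37C, 5% CO2, humidified; add CellTiter-Glo, 5 min room temperature; read luminescence.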

[2] = Quantitative High-Throughput drug screen in 47 multiple myeloma cell lines against the NCATS MIPE library collection: KMS26_JCRB cell viability assay (AID 1918975); conditions: KMS26 myeloma cells viability, CellTiter-Glo ATP, 48 h; viability (% of DMSO): at 45.8 µM (top of the series); note: nearly all actives have a fitted effect of over 45% in size
Summary of the method: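 CellTiter-Glo luminescence (ATP) after 48 h compound exposure, 37C/5% CO2; 500 cells/well; MIPE 4.0 approved/investigational drugs pinned in; DMSO = 100%, media only = 0% viability.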

[3] = Quantitative High-Throughput drug screen in 47 multiple myeloma cell lines against the NCATS MIPE library collection: MMM1_PLB cell viability assay (AID 1918976); note: nearly all actives have a fitted effect of over 35% in size
Summary of the method: (§2)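 qHTS format: cells plated (500/well), pin-dosed with MIPE 4.0 compounds, kept 48 h at 37 °C. Readout was CellTiter-Glo luminescence, median RLU.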

[4] = Quantitative High-Throughput drug screen in 47 multiple myeloma cell lines against the NCATS MIPE library collection: MOLP8_DSMZ cell viability assay (AID 1918977); conditions: MOLP8 myeloma viability, CellTiter-Glo ATP luminescence, 48 h; viability (% of control): at 45.8 µM (top of the series); note: nearly all actives have a fitted effect of over 45% in size
Summary of the method: as §2

[5] = Quantitative High-Throughput drug screen in 47 multiple myeloma cell lines against the NCATS MIPE library collection: NCIH929_DSMZ cell viability assay (AID 1918978); note: nearly all actives have a fitted effect of over 35% in size
Summary of the method: as §2

[6] = Quantitative High-Throughput drug screen in 47 multiple myeloma cell lines against the NCATS MIPE library collection: OCIMY1_PLB cell viability assay (AID 1918979); conditions: OCI-MY1 myeloma viability, CellTiter-Glo ATP, 48 h; viability: at 45.8 µM (top of the series) unless noted; note: nearly all actives have a fitted effect of over 35% in size
Summary of the method: as §2

[7] = Quantitative High-Throughput drug screen in 47 multiple myeloma cell lines against the NCATS MIPE library collection: MM1S_ATCC cell viability assay (AID 1918980); note: nearly all actives have a fitted effect of over 45% in size
Summary of the method: as §2

[8] = Quantitative High-Throughput drug screen in 47 multiple myeloma cell lines against the NCATS MIPE library collection: MM1R_ATCC cell viability assay (AID 1918981); note: nearly all actives have a fitted effect of over 35% in size
Summary of the method: as §2

[9] = Quantitative High-Throughput drug screen in 47 multiple myeloma cell lines against the NCATS MIPE library collection: LP1_DSMZ cell viability assay (AID 1918982); conditions: LP1 myeloma viability, CellTiter-Glo ATP luminescence, 48 h; viability (% of control): at 45.8 µM (top of the series); note: nearly all actives have a fitted effect of over 35% in size
Summary of the method: as §2

[10] = Quantitative High-Throughput drug screen in 47 multiple myeloma cell lines against the NCATS MIPE library collection: L363_DSMZ cell viability assay (AID 1918984); conditions: L363 myeloma viability, CellTiter-Glo ATP luminescence, 48 h; viability (% of control): at 45.8 µM (top of the series); note: nearly all actives have a fitted effect of over 40% in size
Summary of the method: as §2

[11] = Quantitative High-Throughput drug screen in 47 multiple myeloma cell lines against the NCATS MIPE library collection: KMS34_JCRB cell viability assay (AID 1918985); conditions: KMS34 myeloma viability, CellTiter-Glo ATP luminescence, 48 h; viability, percent of control: at 45.8 µM (top of the series); note: nearly all actives have a fitted effect of over 40% in size
Summary of the method: as §2

[12] = Quantitative High-Throughput drug screen in 47 multiple myeloma cell lines against the NCATS MIPE library collection: OCIMY7_PLB cell viability assay (AID 1918987); conditions: OCI-MY7 myeloma viability, CellTiter-Glo ATP, 48 h; viability (% of DMSO): at 45.8 µM (top of the series); note: nearly all actives have a fitted effect of over 65% in size
Summary of the method: as §2

[13] = Quantitative High-Throughput drug screen in 47 multiple myeloma cell lines against the NCATS MIPE library collection: OCIMY5_PLB cell viability assay (AID 1918988); conditions: OCI-MY5 myeloma viability, ATP luminescence, 48 h; viability, % of control: at 45.8 µM (top of the series); note: nearly all actives have a fitted effect of over 65% in size;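 for viability, % of control: 100% = DMSO-treated wells and 0% = wells with media alone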
Summary of the method: as §2

[14] = Quantitative High-Throughput drug screen in 47 multiple myeloma cell lines against the NCATS MIPE library collection: SKMM1_PLB cell viability assay (AID 1919863); conditions: SKMM1 myeloma viability, CellTiter-Glo ATP, 48 h; viability: stronger effect = lower value; note: nearly all actives have a fitted effect of over 35% in size
Summary of the method: as §2

[15] = Quantitative High-Throughput drug screen in 47 multiple myeloma cell lines against the NCATS MIPE library collection: U266_ATCC cell viability assay (AID 1919864); conditions: U266 myeloma viability, CellTiter-Glo ATP luminescence, 48 h; viability (% of DMSO control): at 45.8 µM (top of the series); note: nearly all actives have a fitted effect of over 35% in size
Summary of the method: as §2

[16] = Quantitative High-Throughput drug screen in 47 multiple myeloma cell lines against the NCATS MIPE library collection: XG6_PLB cell viability assay (AID 1919865); conditions: XG6 myeloma viability, CellTiter-Glo ATP luminescence, 48 h; viability (% of control): at 45.8 µM (top of the series); note: nearly all actives have a fitted effect of over 40% in size
Summary of the method: as §2

[17] = Quantitative High-Throughput drug screen in 47 multiple myeloma cell lines against the NCATS MIPE library collection: KMS28PE_JCRB cell viability assay (AID 1918983); note: nearly all actives have a fitted effect of over 35% in size
Summary of the method: as §2

[18] = Quantitative High-Throughput drug screen in 47 multiple myeloma cell lines against the NCATS MIPE library collection: OPM1_PLB cell viability assay (AID 1918989); note: nearly all actives have a fitted effect of over 40% in size
Summary of the method: as §2

[19] = Quantitative High-Throughput drug screen in 47 multiple myeloma cell lines against the NCATS MIPE library collection: XG1_PLB cell viability assay (AID 1919866); conditions: CellTiter-Glo ATP, 48 h; viability: at 45.8 µM (top of the series); note: nearly all actives have a fitted effect of over 35% in size
Summary of the method: as §2

[20] = Quantitative High-Throughput drug screen in 47 multiple myeloma cell lines against the NCATS MIPE library collection: KMS21BM_JCRB cell viability assay (AID 1918974); conditions: ATP luminescence, 48 h; viability: at 45.8 µM (top of the series) unless noted
Summary of the method: as §1
Potency is the fitted concentration of half-maximal effect.

Cn1c(CNc2ccc(C(=N)N)cc2)nc2cc(C(=O)N(CCC(=O)O)c3ccccn3)ccc21
inactive: Potency [2] | Potency [4] | Potency [8] | Potency [10] | Potency [12] | Potency [13] | viability [14] 127% | Potency [15] | Potency [16]
inconclusive: Potency [1] 0.457 µM [cytotoxic, full curve, poor fit] | Potency [3] 0.0812 µM [rising, full curve] | Potency [5] 14.4 µM [cytotoxic, single point] | Potency [6] 0.0005 µM [cytotoxic, full curve, poor fit] | Potency [9] 0.0009 µM [rising, full curve, poor fit] | Potency [11] 0.0288 µM [rising, full curve, poor fit]
active: Potency [7] 14.4 µM

CCOC(=O)[C@@H](N)CCC(=O)N[C@@H](CSCc1ccccc1)C(=O)N[C@@H](C(=O)OCC)c1ccccc1
active: Potency [19] 23.5 µM
inactive: Potency [17]
inconclusive: Potency [1] 33.2 µM [cytotoxic, single point] | Potency [2] 37.2 µM [cytotoxic, single point] | Potency [3] 33.2 µM [cytotoxic, single point] | Potency [4] 26.4 µM [cytotoxic, single point] | Potency [5] 33.2 µM [cytotoxic, single point] | Potency [6] 0.0012 µM [rising, full curve, poor fit] | Potency [7] 37.2 µM [cytotoxic, single point] | Potency [8] 37.2 µM [cytotoxic, single point] | Potency [9] 37.2 µM [cytotoxic, single point] | Potency [10] 23.5 µM [cytotoxic, partial curve, poor fit] | Potency [11] 26.4 µM [cytotoxic, partial curve, poor fit] | Potency [13] 29.6 µM [cytotoxic, single point] | Potency [18] 37.2 µM [cytotoxic, single point] | Potency [14] 29.6 µM [cytotoxic, single point] | Potency [15] 37.2 µM [cytotoxic, single point]

FC(F)c1nc2ccccc2n1-c1nc(N2CCOCC2)nc(N2CCOCC2)n1
inconclusive: viability [20] 17.3% [cytotoxic] | Potency [6] 1.32 µM [cytotoxic, full curve, poor fit] | Potency [10] 0.0833 µM [cytotoxic, full curve, poor fit] | Potency [15] 0.209 µM [cytotoxic, full curve, poor fit]
active: Potency [1] 0.332 µM | Potency [4] 0.132 µM | Potency [11] 1.32 µM | Potency [14] 1.48 µM | Potency [16] 0.59 µM

Nc1nc2c(ncn2COC(CO)CO)c(=O)[nH]1
inconclusive: Potency [20] 1.66 µM [cytotoxic, partial curve, poor fit] | Potency [4] 23.5 µM [cytotoxic, partial curve, poor fit] | Potency [7] 33.2 µM [cytotoxic, single point]
active: Potency [1] 1.05 µM | Potency [6] 18.7 µM | Potency [9] 23.5 µM | Potency [14] 20.9 µM

COc1cccc2c1C(=O)c1c(O)c3c(c(O)c1C2=O)C[C@@](O)(C(=O)CO)C[C@@H]3O[C@H]1C[C@H](N)[C@@H](O)[C@H](C)O1
active: Potency [1] 0.166 µM | Potency [4] 0.372 µM | Potency [9] 1.87 µM | Potency [11] 0.743 µM | Potency [14] 0.935 µM
inconclusive: Potency [20] 37.2 µM [rising, partial curve, poor fit]

C[C@@H]1[C@H](C)CC[C@]2(C(=O)O)CC[C@]3(C)C(=CC[C@@H]4[C@@]5(C)CC[C@H](O)C(C)(C)[C@H]5CC[C@]43C)[C@@H]12
inconclusive: Potency [20] 6.05 µM [rising, full curve, poor fit] | Potency [4] 3.03 µM [cytotoxic, full curve, poor fit] | Potency [12] 3.82 µM [cytotoxic, full curve, poor fit] | Potency [15] 0.152 µM [rising, full curve, poor fit] | Potency [16] 15.2 µM [cytotoxic, partial curve, poor fit]
active: Potency [9] 48.1 µM | Potency [17] 38.2 µM
inactive: Potency [1] | Potency [7] | Potency [10]

COc1cc2c(cc1-c1c(C)noc1C)ncc1[nH]c(=O)n([C@H](C)c3ccccn3)c12
active: Potency [1] 8.33 µM | Potency [20] 0.743 µM | Potency [5] 3.32 µM | Potency [9] 0.372 µM | Potency [11] 0.469 µM | Potency [12] 18.7 µM | Potency [14] 0.743 µM
inconclusive: Potency [10] 1.87 µM [cytotoxic, partial curve, poor fit]

COc1cccc2nc(-c3cccs3)nc(NN3C(=O)C=C(C)C3=O)c12
active: Potency [1] 0.059 µM | Potency [20] 0.235 µM | Potency [12] 0.0264 µM | Potency [18] 0.0833 µM | Potency [14] 1.05 µM | Potency [16] 0.0833 µM
inconclusive: viability (% of control) [10] 3.87% [cytotoxic]

CC1(C)CC(=O)c2c(C(F)(F)F)nn(-c3ccc(C(N)=O)c(NC4CCC(OC(=O)CN)CC4)c3)c2C1 (stereo not drawn)
inconclusive: Potency [20] 33.2 µM [rising, partial curve, poor fit] | Potency [9] 0.235 µM [cytotoxic, full curve]
active: Potency [1] 0.148 µM | Potency [4] 0.148 µM | Potency [6] 0.469 µM | Potency [8] 0.209 µM | Potency [17] 0.235 µM | Potency [10] 0.0833 µM | Potency [11] 0.166 µM | Potency [19] 0.0833 µM

c1ccc(-c2oc3ncnc(NC[C@@H]4CCCO4)c3c2-c2ccccc2)cc1
inactive: Potency [5]
inconclusive: Potency [1] 37.2 µM [cytotoxic, partial curve, poor fit] | Potency [20] 33.2 µM [rising, partial curve] | Potency [4] 10.5 µM [cytotoxic, partial curve, poor fit] | Potency [10] 0.743 µM [cytotoxic, full curve, poor fit] | Potency [11] 18.7 µM [cytotoxic, partial curve, poor fit] | Potency [12] 2.96 µM [cytotoxic, full curve, poor fit] | Potency [14] 18.7 µM [cytotoxic, partial curve, poor fit] | Potency [19] 9.35 µM [cytotoxic, partial curve]

Clc1ccc(COC(Cn2ccnc2)c2ccc(Cl)cc2Cl)c(Cl)c1 (stereo not drawn)
inconclusive: Potency [1] 37.2 µM [cytotoxic, partial curve, poor fit] | Potency [7] 14.8 µM [cytotoxic, partial curve, poor fit] | Potency [11] 33.2 µM [cytotoxic, single point] | viability (% of DMSO) [12] 75.5% [cytotoxic] | Potency [15] 9.35 µM [cytotoxic, full curve, poor fit] | Potency [19] 18.7 µM [cytotoxic, partial curve]
active: Potency [20] 37.2 µM | Potency [4] 18.7 µM | Potency [8] 23.5 µM | Potency [10] 20.9 µM | Potency [13] 26.4 µM | Potency [16] 18.7 µM

CNC(=O)c1cccc(-c2ccc3c(N4CCOC[C@H]4C)nc(N4CCOC[C@H]4C)nc3n2)c1
inconclusive: Potency [6] 0.0935 µM [cytotoxic, full curve] | Potency [9] 0.0187 µM [cytotoxic, full curve]
active: Potency [1] 0.0935 µM | Potency [20] 0.166 µM | Potency [5] 0.0166 µM | Potency [11] 0.059 µM | Potency [13] 5.9 µM | Potency [14] 0.0662 µM

COc1cc2ncnc(Nc3ccc(F)c(Cl)c3)c2cc1NC(=O)C=CCN1CCCCC1
active: Potency [1] 2.96 µM | Potency [4] 18.7 µM | Potency [6] 26.4 µM | Potency [17] 23.5 µM | Potency [10] 2.35 µM | Potency [12] 1.32 µM
inconclusive: Potency [20] 33.2 µM [rising, partial curve, poor fit] | Potency [9] 33.2 µM [cytotoxic, single point]

CC1CNc2c(cccc2S(=O)(=O)N[C@@H](CCCN=C(N)N)C(=O)N2CC[C@@H](C)C[C@@H]2C(=O)O)C1 (stereo partly drawn)
active: Potency [7] 7.43 µM
inactive: Potency [2] | Potency [6] | Potency [9] | Potency [12] | Potency [15]
inconclusive: Potency [1] 0.418 µM [rising, full curve, poor fit] | Potency [3] 0.0021 µM [rising, full curve, poor fit] | Potency [4] 0.0012 µM [rising, full curve, poor fit] | Potency [5] 11.8 µM [cytotoxic, single point] | Potency [8] 20.9 µM [cytotoxic, partial curve] | Potency [17] 20.9 µM [rising, partial curve] | Potency [10] 20.9 µM [cytotoxic, partial curve, poor fit] | Potency [13] 0.0047 µM [cytotoxic, full curve, poor fit] | Potency [18] 0.0105 µM [rising, full curve, poor fit] | Potency [14] 0.001 µM

From PubChem BioAssay (NCATS)
